PubChem BioAssay AID1259254 – NCATS | 2017

Aim: 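Finding genes that stop cells copying their DNA twice in one cycle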 (primary screen)
Cells: human HCT116 colorectal cancer cells
Reagent: single siRNA against human genes
Duration: 3 days
Measurement: 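Nuclei stained with Hoechst and imaged; cell-cycle phase assigned by DNA content; G2 share scaled per plate, non-targeting siRNA 0%, GMNN siRNA 100%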
Reading the numbers: G2 robust z-score and G2 cells, % of GMNN control: higher = more G2 cells, more excess DNA replication; raw share of cells in G2: higher = larger share of cells with G2 DNA content
Active means: 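Active siRNAs have a G2 robust z of 5 or more median absolute deviations over the median, which in these data means about 38% or higher of GMNN control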
The deposit covers about 59,000 reagents; below is a part drawn at random. Over the whole deposit, about 1,550 (2.6%) got an active call. 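G2 share is only a proxy for re-replication; each gene was hit by three separate siRNAs, and active genes were retested.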 The raw values are shown without normalisation. Entries without a mark were called inactive. Reagents against one gene are numbered here. No sequences are given here. Not given: the amount of reagent.

| gene knocked down | reagent | G2 robust z-score | G2 cells, % of GMNN control | raw share of cells in G2 (%) |
| --- | --- | --- | --- | --- |
| OR10H2 (olfactory receptor family 10 subfamily H member 2) | 1 | 0.382 | 5.65 | 6.54 |
| OR10H2 (olfactory receptor family 10 subfamily H member 2) | 2 | -0.091 | 2.33 | 4.95 |
| OR10H2 (olfactory receptor family 10 subfamily H member 2) | 3 | -0.196 | 1.59 | 3.85 |
| TNS2 (tensin 2) | 1 | 2.35 | 19.5 | 10.6 |
| TNS2 (tensin 2) | 2 | 4.28 | 33.1 | 19.6 |
| TNS2 (tensin 2) | 3 | 0.0448 | 3.28 | 5.25 |
| RXFP4 (relaxin family peptide/INSL5 receptor 4) | 1 | 0.652 | 7.55 | 7.58 |
| RXFP4 (relaxin family peptide/INSL5 receptor 4) | 2 | -0.328 | 0.656 | 4.93 |
| RXFP4 (relaxin family peptide/INSL5 receptor 4) | 3 | -0.528 | -0.746 | 3.9 |
| TEX19 (testis expressed 19) | 1 | 1.25 | 11.8 | 8.09 |
| TEX19 (testis expressed 19) | 2 | -0.0465 | 2.64 | 4.56 |
| TEX19 (testis expressed 19) | 3 | 1.91 | 16.4 | 11.6 |
| TAC3 (tachykinin precursor 3) | 1 | 0.288 | 4.99 | 5.61 |
| TAC3 (tachykinin precursor 3) | 2 | 0.805 | 8.63 | 7.51 |
| TAC3 (tachykinin precursor 3) | 3 | -0.469 | -0.329 | 5.57 |
| ATG14 (autophagy related 14) | 1 | -1.6 | -8.31 | 1.73 |
| ATG14 (autophagy related 14) | 2 | -0.34 | 0.576 | 4.37 |
| ATG14 (autophagy related 14) | 3 | -0.34 | 0.573 | 3.39 |
| MEX3C (mex-3 RNA binding family member C) | 1 | -0.56 | -0.973 | 5.51 |
| MEX3C (mex-3 RNA binding family member C) | 2 | -1.33 | -6.38 | 1.89 |
| MEX3C (mex-3 RNA binding family member C) | 3 | 2.28 | 19 | 11.1 |
| AGAP1 (ArfGAP with GTPase domain, ankyrin repeat and PH domain 1) | 1 | 0.909 | 9.36 | 7.84 |
| AGAP1 (ArfGAP with GTPase domain, ankyrin repeat and PH domain 1) | 2 | -0.312 | 0.773 | 3.56 |
| AGAP1 (ArfGAP with GTPase domain, ankyrin repeat and PH domain 1) | 3 | -0.338 | 0.588 | 1.99 |
| GPR137 (G protein-coupled receptor 137) | 1 | 1.47 | 13.3 | 12.3 |
| GPR137 (G protein-coupled receptor 137) | 2 | 1.19 | 11.3 | 9.05 |
| GPR137 (G protein-coupled receptor 137) | 3 | 2.5 | 20.6 | 11.8 |
| DCAF5 (DDB1 and CUL4 associated factor 5) | 1 | 3.97 | 30.9 | 18.8 |
| DCAF5 (DDB1 and CUL4 associated factor 5) | 2 | -0.58 | -1.11 | 3.45 |
| DCAF5 (DDB1 and CUL4 associated factor 5) | 3 | -0.213 | 1.47 | 3.87 |

Not a retest: an excerpt of the list.
| gene knocked down | reagent | G2 robust z-score | G2 cells, % of GMNN control | raw share of cells in G2 (%) |
| --- | --- | --- | --- | --- |
| GPR137 (G protein-coupled receptor 137) | 2 | 1.19 | 11.3 | 9.05 |
| GPR137 (G protein-coupled receptor 137) | 3 | 2.5 | 20.6 | 11.8 |
